# Results reported in PubChem BioAssay AID1508600 (Functional Genomics Laboratory (NCATS/FGL), 2020).
# Among all 53,000 sequences or so, about 3,700 (7%) were called active.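 How the source made its calls: active means gene knockdowns whose robust z-score for IL-1 alpha signal is at least 2 or at most -2, so actives lie on both sides; inactive means the rest.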 The list shows a part of the results.
# Test: Components of the Cytosolic LPS Sensing Pathway: Gene Identification via Genome-wide siRNA Screen;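 further: robust z of the log signal after scaling to non-targeting control siRNA wells of the plate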
# Details: RAW264.7 macrophages, IL-1a HTRF, actives lie on both sides, screened at 100 nM (by protocol), cells primed 5 h with Pam3CSK4 first
# In short: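 Using IL-1a HTRF as read-out, the screen measured release from RAW264.7 cells after 48h siRNA knockdown (100 nM), 5 h Pam3CSK4 priming and 24 h cytosolic LipidA. Values were expressed relative to negative-control wells as robust z-scores.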
row,Sequence,z-score
1,GCUAUAAGGAAAGAGUAGCTT against Taar9,inactive: 0.285
2,GGUCUUUAGGUGCUAAAGATT against Pheta2,inactive: 1.21
3,GCAAAGUGAAUAAGUUCUGTT against Fryl,inactive: -0.896
4,GCUCACAUGUUUUAGGUGATT against Poc5,inactive: 0.756
5,GGAAAAUCUACAUUCCCUUTT against Ncstn,inactive: 1.07
6,GGAGAAGAAAAAGCGGUACTT against Plxnb2,active: 2.71
7,GGCACCAUACUGGACAUACTT against Chpt1,inactive: -0.115
8,GCCUCUCCCUACGGUAAAUTT against Oxsm,inactive: 0.457
9,GGAAGAGUUGGAGAAAAUUTT against Tex46,inactive: 2
10,GGCGCAUAGCAUUUGACAUTT against Fbxl13,inactive: -0.561
11,GGAUAACAGAUGGUUAAUATT against Pramel48,inactive: 0.202
12,GGAGAUCCUGGGUACUGCATT against Rpl12,inactive: 1.34
13,CGGACCUAUGCAAGAAGAUTT against Psapl1,inactive: 0.102
14,GCCUGUGCAAAAGAGAUUUTT against Gata3,inactive: 1.93
15,GGAACAAUGGGUUCAUUUUTT against Ifi203,inactive: 0.136
16,GGAAAGUUGCACUAUUAUCTT against Ide,inactive: 1.44
17,GGGUUUCAAUAUGAUCAAATT against Catsperb,inactive: 0.495
18,GCAUCCUUAGUGAUUUCUATT against Slc48a1,inactive: 0.601
19,GGCUCUUACAUGAAAUGAUTT against Copb1,inactive: -0.933
20,GCAGAACCAACAUGGCCGUTT against Polr3b,inactive: 0.799
21,GGCUGCUACCAAGAGUCAATT against Reep4,inactive: -1.64
22,GCUGUUCAUACCUAGUGGGTT against Sbno2,inactive: -1.78

row,Sequence,z-score
1,GGUACUUACAAUUUCAUCATT against Rint1,inactive: 0.253
2,GUUAUCUGGAUAUCCUAUATT against Olfr1469,inactive: -0.732
3,CCUGAUUAGCAGAGACUUGTT against Col23a1,inactive: -0.265
4,GGGAGAACUUACAAAAAGATT against Wdcp,inactive: -1.1
5,GGCAAAAAGGACGUGAACCTT against Cblc,inactive: 0.749
6,CGUGGUCAUCUGGUAUGAGTT against Zfp653,active: 2.53
7,CCUAAAGGAAGGUUUCCAUTT against Cacng4,inactive: 1.45
8,GCAAUGUGUAUGGUAUCUUTT against Tas2r121,inactive: -1.73
9,GCUCAUAGAGACAAUUGCATT against Olfr822,inactive: -0.501
10,GGAUUUGCUCACGGAACCATT against Olfr1230,inactive: 0.472
11,GGACAACAAACUUUUCCUGTT against Ctsa,inactive: 0.164
12,GGCUCUCAAUGAUCAUCAUTT against Aldob,inactive: -0.423
13,CGGUUGUGUGAGUAAAAUUTT against Pax6,inactive: -0.169
14,GGAAGUGCUGCACAUACUATT against Bnc2,inactive: -0.525
15,GCAUUAGUGGACAUGUAUCTT against Slc6a13,inactive: 0.744
16,GGAGCUGCUCAUGUAUUCCTT against Gnb2,inactive: -1.91
17,GGAUUACAAAUGGAGAAAGTT against Ano4,inactive: -0.411
18,CCGGAAAGUUCGACAUUCCTT against Tmbim1,inactive: 1.07
19,GGUGGUCUACUUAGGUUUATT against Sc5d,inactive: 0.63
20,GGCUAAGUAGAACUUGUUATT against Pdcl2,inactive: -0.644
21,GGAAGUGUGAUGAAUGAUATT against Micu1,inactive: 0.532
22,GCUUAAGUGGCAACCUAGATT against Zfp93,inactive: -0.487

row,Sequence,z-score
1,GGAGAAGAAGUGCUUCCCUTT against Gls2,active: -2.81
2,GGAAAUACCCACCUUAUACTT against Efhc2,active: 2.51
3,GCAUCGCAUUUAAAUAGAATT against 4833408A19Rik,inactive: 0.965
4,GCUAGACUCAAUCAAGCAGTT against Papln,inactive: -0.539
5,GGAGAAUGAAAGUCAAGUUTT against Smn1,inactive: -0.0605
6,GACAGUAGCCUUCCUCAGGTT against Nr0b2,inactive: 0.823
7,GGAUACAAAGAGAGUUGUCTT against Eif3c,inactive: 1.23
8,GGUGUUGGAGACCAUGGAUTT against Clcn6,inactive: 0.829
9,GGCAAAUUUCACUUUCAUUTT against Aph1c,inactive: -0.557
10,CGGGAUCGUACUAAGCUGATT against Spdye4b,inactive: 0.38
11,CGAGGGUCCUCGAAGACUATT against 3300002I08Rik,inactive: 1.19
12,GCAGUGUAACUGGUAAAAUTT against Wdr92,inactive: 0.476
13,CCUACAUCCCUACCAUAGATT against Diras1,inactive: -1.63
14,GGAGACCUUCCAGAACACATT against Mesd,active: 2.38
15,CGAGUUAUCCAAUAGCAUCTT against Rab12,inactive: -0.402
16,GGUUUGUUUACUCCUUUUGTT against Olfr876,inactive: -0.192
17,CCGAAAAUGGUUAGGACAUTT against Kynu,inactive: 1.44
18,GGAAAUUGUAAGAAGCGUATT against Ska2,inactive: -1.42
19,GGCCAUCACUAUUAGCCUCTT against Vmn1r70,inactive: -0.214
20,GGAAGUCCACUUUUUUGUGTT against Cpb2,inactive: 1.83
21,GGCUCUGAUGAAUACAACATT against Slc7a6os,inactive: -1.3
22,GGAUCAGGUGUGUGAGUCCTT against Gzmc,inactive: -1.37

row,Sequence,z-score
1,CCAGAAGACCUUUUACCUGTT against Il1rn,inactive: 0.678
2,GGAAUAGGACCUAUGUCUGTT against Nr2e1,inactive: -0.455
3,GGCGGUGAUAUUCUAGAAGTT against Dmxl2,inactive: 1.65
4,GCCGAUAUUGUGACAAGAUTT against Cd72,inactive: 0.352
5,GGGCUUCAUUAAGGACUGCTT against Ncs1,inactive: 1.62
6,GGCUUGGUUCUGGUACCUUTT against Ddx28,inactive: -0.984
7,GGUUGUGAAGUGAGAAUUCTT against S100pbp,inactive: -1.58
8,GGAGAUAAUGAAGAAGGUUTT against Mgat5,inactive: 0.658
9,CGAACAACCUCAUUUCAUGTT against Atp8b1,inactive: 0.9
10,GCAAUCCAAAGUUUUAAUCTT against Septin7,inactive: 0.39
11,GCUAAAAACGAGAUAAGAGTT against Snx2,inactive: -0.316
12,GGAUCAACCUAGAAGCUUGTT against Strada,inactive: -0.192
13,GGCGUGUCAAAGAAAUUUUTT against Vmn1r171,inactive: 0.489
14,CCUUGUUCCCUUAUUGUACTT against Olfr362,inactive: -0.994
15,GGAUCUUGAGAAGAAGUAUTT against Adcy6,inactive: -1.15
16,GGCCAUCUGCUCCUUUAUUTT against Aqp11,inactive: -0.2
17,CGGAAAAAGAAGGACAUCCTT against Mesd,inactive: 0.51
18,GCACGAGAGACAUUUCUCCTT against Kat7,active: -2.32
19,GGUUCUGGUUGAUAGAGAUTT against 4931428L18Rik,inactive: 0.373
20,CCUCCUAAGGAUGAAGAUUTT against Calml4,inactive: 0.654
21,GCUGGUAACAGAAUUUCUUTT against Aox2,inactive: 0.515
22,CCACUGAGCCCAAUGGGUUTT against Nrxn2,inactive: -0.0236

# Quoted from the listing.
# z-score with GGCUUGGUUCUGGUACCUUTT against Ddx28 reads inactive: -0.984
# z-score with GCAAUCCAAAGUUUUAAUCTT against Septin7 reads inactive: 0.39
# z-score with CGAACAACCUCAUUUCAUGTT against Atp8b1 reads inactive: 0.9

# (next part)

row,Sequence,z-score
1,GGUAAUGUUUGAAACUUACTT against Actr2,inactive: 0.000493
2,GGAUAUACUUACGUAACGGTT against Srp9,inactive: -0.0154
3,CCUAAAUUAGUAGGACGGUTT against Cdkn1a,inactive: 0.675
4,CCAUAUUUCAGAUCAGACUTT against Zfp68,inactive: 0.364
5,GGAACCUGUACAGAUAAAGTT against Pam,inactive: -0.409
6,GCUGAAAUACGCUGACAUCTT against Jdp2,inactive: 0.18
7,GGCAGAAAGAAAUUGAGAATT against Trim42,inactive: -0.655
8,CGGGUGCCGGAAAGUUUAUTT against Klf7,active: 2.84
9,CGGUUUCACGAAUUCCUCCTT against Scaper,active: -2.16
10,GCCAUAAGAUGCUACAGUGTT against Tubb6,inactive: 1.53
11,CGAGCCGUUAAACAGUUCUTT against Cyb561a3,inactive: 0.0936
12,GGCAAUUGGAAAUGCCCUGTT against Atp5h,inactive: -0.323
13,CCCUCCAUGUCUAAAAAAATT against Kcmf1,inactive: -1.19
14,CCUUAACCUGGACAAGUGCTT against Itm2b,inactive: 1.12
15,GCUCCUAUUACUGAAUUUATT against Olfr749,inactive: -0.445
16,GGGCUCCACUGUUGUUAUATT against Mid1ip1,inactive: -0.268
17,GGCUUUUGUUUUGAGGUAGTT against Zbed3,inactive: 1.11
18,GCGAUCCACGAGAAACAGATT against Prrc1,inactive: 0.124
19,GGUUUUCUUCUGAAUACCCTT against Dusp4,inactive: 0.402

# Part of the list above, bar-delimited:
row | Sequence | z-score
11 | CGAGCCGUUAAACAGUUCUTT against Cyb561a3 | inactive: 0.0936
12 | GGCAAUUGGAAAUGCCCUGTT against Atp5h | inactive: -0.323
13 | CCCUCCAUGUCUAAAAAAATT against Kcmf1 | inactive: -1.19
14 | CCUUAACCUGGACAAGUGCTT against Itm2b | inactive: 1.12
